Reference: article PMC3401907 (Chembiochem, 2012)

Assay: Boc solid-phase peptide synthesis; MBHA resin loaded with Boc-PNA-G(Z)-OH; HBTU/DIPEA; DIC/DhBtOH for fluorescein
Conditions: whole synthesis

| Substance | isolated yield |
| --- | --- |
| H-C5LArgC5LArgG5LArgC5LArgT5LArgG5LArgT5LArgC5LArgACACGCACAG-NH2 | 11% |
| H-CC5LArgGC5LArgTG5LArgTC5LArgAC5LArgAC5LArgGC5LArgAC5LArgAG-NH2 | 19% |

Assay: general procedure: Boc solid-phase peptide synthesis; MBHA resin loaded with Boc-PNA-G(Z)-OH; HBTU/DIPEA; DIC/DhBtOH for fluorescein
Conditions: whole synthesis

| Substance | isolated yield |
| --- | --- |
| Fl-AEEA-C2DArgC2DArgG2DArgC2DArgT2DArgG2DArgT2DArgC2DArgACACGCACAG-NH2 | 2.8% |
| Fl-AEEA-C5LArgC5LArgG5LArgC5LArgT5LArgG5LArgT5LArgC5LArgACACGCACAG-NH2 | 17% |
| Fl-AEEA-CC2DArgGC2DArgTG2DArgTC2DArgAC2DArgAC2DArgGC2DArgAC2DArg AG-NH2 | 6.8% |
| Fl-AEEA-CC5LArgGC5LArgTG5LArgTC5LArgAC5LArgAC5LArgGC5LArgAC5LArgAG-NH2 | 17% |
| H-C2DArgC2DArgG2DArgC2DArgT2DArgG2DArgT2DArgC2DArgACACGCACAG-NH2 | 3.2% |
| H-CC2DARGGC2DARGTG2DARGTC2DARGAC2DARGAC2DARGGC2DARGAC2DARG AG-NH2 | 3.6% |
